Assay [1] deals with T1, His-TilA without its signal sequence (SAOUHSC_00405), as coproduced in the complex (S. aureus) (UniProt Q2G0W9).
T1 sequence: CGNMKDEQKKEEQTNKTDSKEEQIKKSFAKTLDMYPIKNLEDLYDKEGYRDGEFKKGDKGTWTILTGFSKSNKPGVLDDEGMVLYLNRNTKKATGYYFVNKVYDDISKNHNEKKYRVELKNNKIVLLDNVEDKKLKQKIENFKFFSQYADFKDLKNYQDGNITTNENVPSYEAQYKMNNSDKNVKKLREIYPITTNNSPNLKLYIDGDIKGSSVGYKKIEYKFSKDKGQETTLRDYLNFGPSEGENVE
As to the kind of experiment: cryo-EM structure; co-purified TilA-TslA-TlaA1-TlaA2 complex at 0.5 mg/ml; 7.3 Å volume; AlphaFold model fitted as a rigid body; no density for TlaA1.

By UniProt entry, the sequences of proteins in these tests, tags left out. Where a name states a change or a piece, a line headed by the entry shows the natural chain unless it says otherwise.
UniProt Q2G0W7: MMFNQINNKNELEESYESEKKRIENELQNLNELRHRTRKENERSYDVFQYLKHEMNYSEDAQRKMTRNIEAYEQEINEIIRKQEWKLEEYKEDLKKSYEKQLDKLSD
UniProt Q2G0W6: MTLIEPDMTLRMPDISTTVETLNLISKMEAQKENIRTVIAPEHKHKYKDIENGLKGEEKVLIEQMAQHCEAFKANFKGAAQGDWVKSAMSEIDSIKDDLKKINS

For assay [2], the target named is T1, His-TilA without its signal sequence (SAOUHSC_00405), as coproduced in the complex (S. aureus). Kind of assay: pull-down + SEC; His-TilA, TslA, TlaA1-Strep and TlaA2-Myc coproduced; lysate on HisTrap, peak fraction on StrepTrap, then SEC; SDS-PAGE of peak fractions.
Assay [3] addresses Strep-tagged TlaA1 (SAOUHSC_00407) (S. aureus) (UniProt Q2G0W7). Described as above.
Assay [4] shares this target. As to the kind of experiment: pull-down + SEC; His-TslACT, Strep-TlaA1 and Myc-TlaA2 co-overproduced; successive Ni-affinity and Streptactin-affinity purification, then SEC; peak fractions analysed by SDS-PAGE and western blot (anti-TslA, anti-Strep, anti-Myc).
For assay [5], the target named is TslA lipase domain, bacterial two-hybrid fusion (S. aureus). Kind of assay: two-hybrid; bacterial two-hybrid, T18 and T25 fusions co-transformed into E. coli BTH101, spotted on MacConkey agar with 1% maltose, 30 °C for 40 h.

This note sets out measurements from publication PMC10730906.

No constants are given. Whether binding was seen depends on the method and setting. A result given as binding can be weak or reduced; the word gives no strength. For some of these results: Tags and fused reporters may be left off the sequences shown. For some of these results: Binding seen in cells or lysates may run through a third protein.

For “TslA (SAOUHSC_00406) as coproduced in the TilA-TslA-TlaA1-TlaA2 complex (S. aureus)”, the binding entry in assay [1] and in assay [2] was “binds” in each case.

“Strep-tagged TlaA1 (SAOUHSC_00407) (from UniProt Q2G0W7)”: the binding entry in assay [2] is “binds”.

With “Myc-tagged TlaA2 (SAOUHSC_00408) (from UniProt Q2G0W6)”, the binding result in assay [2], in assay [3] and in assay [4] was “binds” throughout.

B1: TilA, bacterial two-hybrid fusion (protein, UniProt Q2G0W9 1-270)
chain: MEYIKKIALYMSVLLLIIFIGGCGNMKDEQKKEEQTNKTDSKEEQIKKSFAKTLDMYPIKNLEDLYDKEGYRDGEFKKGDKGTWTILTGFSKSNKPGVLDDEGMVLYLNRNTKKATGYYFVNKVYDDISKNHNEKKYRVELKNNKIVLLDNVEDKKLKQKIENFKFFSQYADFKDLKNYQDGNITTNENVPSYEAQYKMNNSDKNVKKLREIYPITTNNSPNLKLYIDGDIKGSSVGYKKIEYKFSKDKGQETTLRDYLNFGPSEGENVE
Take B1: in assay [5], the binding entry was “binds weakly”.
